Experimental data published in article PMC7862700.
Only a part is listed here, and it is no random draw. For part of these data: At the low end of the ranking the order means little. This is one part of the list. For part of these data: Construct or isoform of the protein are uncertain.

Experiments:
Experiment in all cases: DAPPL (digital affinity profiling via proximity ligation, sequencing)
Conditions in all cases: 10 mM Tris-HCl pH 7.5, 50 mM NaCl, 1 mM DTT, 4% glycerol, room temperature, 30 min; GST-TFs on glutathione beads, 16-mer random dsDNA library, 0.1% …; high values mean tight binding; double strand, one strand shown; scale: fold enrichment (6-mer frequency, TF over GST control)
GABPA = molecular target: T1, GABPA (UniProt Q06546)
T1 sequence: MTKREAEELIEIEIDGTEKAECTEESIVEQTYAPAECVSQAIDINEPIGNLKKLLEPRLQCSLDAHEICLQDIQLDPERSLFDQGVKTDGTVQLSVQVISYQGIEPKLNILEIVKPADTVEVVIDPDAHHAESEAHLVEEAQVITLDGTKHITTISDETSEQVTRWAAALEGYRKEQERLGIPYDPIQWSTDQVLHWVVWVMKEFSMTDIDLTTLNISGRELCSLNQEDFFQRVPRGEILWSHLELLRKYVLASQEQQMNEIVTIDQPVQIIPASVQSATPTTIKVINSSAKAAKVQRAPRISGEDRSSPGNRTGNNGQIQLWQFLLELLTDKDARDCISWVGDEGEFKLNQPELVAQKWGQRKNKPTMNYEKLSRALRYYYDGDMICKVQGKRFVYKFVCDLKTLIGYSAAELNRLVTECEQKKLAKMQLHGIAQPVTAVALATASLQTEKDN

ETS1 = molecular target: T2, ETS1 (UniProt P14921)
T2 sequence: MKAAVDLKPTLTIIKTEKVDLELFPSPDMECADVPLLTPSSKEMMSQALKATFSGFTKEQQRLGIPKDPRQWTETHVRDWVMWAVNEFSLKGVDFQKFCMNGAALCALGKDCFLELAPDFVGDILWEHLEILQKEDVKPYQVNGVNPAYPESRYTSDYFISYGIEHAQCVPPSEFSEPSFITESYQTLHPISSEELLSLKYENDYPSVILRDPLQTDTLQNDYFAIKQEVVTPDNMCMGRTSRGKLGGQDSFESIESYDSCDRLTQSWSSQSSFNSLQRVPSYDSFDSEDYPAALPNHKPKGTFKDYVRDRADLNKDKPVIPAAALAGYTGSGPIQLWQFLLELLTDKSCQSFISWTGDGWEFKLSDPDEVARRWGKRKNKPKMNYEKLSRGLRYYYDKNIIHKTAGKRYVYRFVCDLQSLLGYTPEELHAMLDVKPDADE

SPDEF = molecular target: T3, SPDEF (UniProt O95238)
T3 sequence: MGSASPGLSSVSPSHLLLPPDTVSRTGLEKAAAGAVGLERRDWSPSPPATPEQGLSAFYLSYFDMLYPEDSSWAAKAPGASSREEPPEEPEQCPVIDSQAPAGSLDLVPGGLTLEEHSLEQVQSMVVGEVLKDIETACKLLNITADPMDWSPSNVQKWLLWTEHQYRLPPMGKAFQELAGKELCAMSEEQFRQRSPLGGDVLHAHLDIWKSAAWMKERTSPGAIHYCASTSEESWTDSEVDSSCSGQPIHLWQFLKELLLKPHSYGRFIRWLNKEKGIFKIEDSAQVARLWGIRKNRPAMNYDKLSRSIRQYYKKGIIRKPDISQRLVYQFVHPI

Sequence	binding signal (GABPA)	binding signal (ETS1)	binding signal (SPDEF)
CAGAAA	0.936	0.922	0.906
TGGAAC	0.993	0.92	0.91
AAACAG	0.998	1.07	0.977
CATAGT	0.989	1.01	0.935
CCAAGT	0.922	0.92	0.919
TTGGGA	0.988	0.954	0.933
CGGCCC	0.925	0.998	0.966
ACTGAT	1.27	1.34	1.1
CAGCTC	1.01	0.953	0.936
GCGTTT	1.11	1.13	0.985
GGCCTC	1.26	1.1	1.08
GGAAGA	1.11	1.03	0.974
AGCACG	0.917	0.946	0.924
AGTACG	0.964	0.907	0.865
TGGGCG	0.75	0.803	0.814
CGAAGT	0.942	1.02	0.85
TGCAGA	0.977	1.04	1
GTGTTA	0.949	0.905	0.978
CAGATT	0.898	1.01	0.992
GATTTA	0.964	1.04	1.08
ACTGTC	0.959	0.957	0.974
AGGCAC	0.835	0.778	0.787
ACATGA	0.942	0.968	0.921
TGCTAG	1.08	1.09	1.09
TAATGG	1.24	1.32	1.22
GTGTAC	0.791	0.9	0.964
GTTGCC	0.928	0.829	0.978
GTGCTG	0.811	0.787	0.818
CATAAG	0.902	0.883	0.914
CCCGCT	1.34	1.43	1.32

Laid out differently: results already given.
GTGTTA
  binding signal (GABPA) = 0.949
  binding signal (ETS1) = 0.905
  binding signal (SPDEF) = 0.978
CAGATT
  binding signal (GABPA) = 0.898
  binding signal (ETS1) = 1.01
  binding signal (SPDEF) = 0.992
